{"source": "patent US20210052529A1", "about": "“PHARMACEUTICAL COMPOSITIONS COMPRISING DICARBOXYLIC ACIDS AND THEIR THERAPEUTIC APPLICATIONS” (Cura Therapeutics, LLC, priority 2018, published 2021)", "assay": "Pharmacokinetic study in rats", "format": "in vivo", "procedure": "A pharmacokinetic study on compound B1 was carried out in rats.", "note": "The name of at least one read-out is uncertain.", "data": [{"smiles": "O=C(O)c1ccc(NC(=O)[C@@H]2CCC[C@H](C(=O)Nc3ccc(C(=O)O)cc3)C2)cc1", "note": "[B1, 4,4′-(((1R,3S)-cyclohexane-1,3-dicarbonyl)bis(azanediyl))dibenzoic acid]", "values": [{"measurement": "Vz or Vz/F", "setting": "IV", "value": 0.78, "unit": "L/kg"}, {"measurement": "Vz or Vz/F", "setting": "PO", "value": 453, "unit": "L/kg"}]}]}
